# Data as given in PubChem BioAssay (EPA / NIEHS).
# The chains behind the UniProt entries cited, without tags or fusion partners. Where a name states a change or a piece, a line headed by the entry shows the natural chain unless it says otherwise.
# UniProt Q9UNQ0: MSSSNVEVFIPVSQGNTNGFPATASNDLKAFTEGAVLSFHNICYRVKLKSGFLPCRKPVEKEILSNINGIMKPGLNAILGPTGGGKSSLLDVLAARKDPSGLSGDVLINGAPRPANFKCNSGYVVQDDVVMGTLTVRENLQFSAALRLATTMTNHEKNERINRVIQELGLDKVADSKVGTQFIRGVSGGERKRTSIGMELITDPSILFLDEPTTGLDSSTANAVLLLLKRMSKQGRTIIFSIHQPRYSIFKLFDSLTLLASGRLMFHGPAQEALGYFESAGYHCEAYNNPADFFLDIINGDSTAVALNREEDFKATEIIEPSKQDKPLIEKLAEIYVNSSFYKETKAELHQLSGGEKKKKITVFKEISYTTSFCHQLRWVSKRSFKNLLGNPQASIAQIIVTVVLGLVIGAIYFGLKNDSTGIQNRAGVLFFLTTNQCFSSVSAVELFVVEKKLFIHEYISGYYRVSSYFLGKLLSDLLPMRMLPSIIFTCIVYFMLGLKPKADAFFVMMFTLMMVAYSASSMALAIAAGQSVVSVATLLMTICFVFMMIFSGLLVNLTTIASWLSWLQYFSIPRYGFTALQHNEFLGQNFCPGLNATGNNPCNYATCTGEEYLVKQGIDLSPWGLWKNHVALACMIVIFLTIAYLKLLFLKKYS
# UniProt P33261, whole entry, looked up: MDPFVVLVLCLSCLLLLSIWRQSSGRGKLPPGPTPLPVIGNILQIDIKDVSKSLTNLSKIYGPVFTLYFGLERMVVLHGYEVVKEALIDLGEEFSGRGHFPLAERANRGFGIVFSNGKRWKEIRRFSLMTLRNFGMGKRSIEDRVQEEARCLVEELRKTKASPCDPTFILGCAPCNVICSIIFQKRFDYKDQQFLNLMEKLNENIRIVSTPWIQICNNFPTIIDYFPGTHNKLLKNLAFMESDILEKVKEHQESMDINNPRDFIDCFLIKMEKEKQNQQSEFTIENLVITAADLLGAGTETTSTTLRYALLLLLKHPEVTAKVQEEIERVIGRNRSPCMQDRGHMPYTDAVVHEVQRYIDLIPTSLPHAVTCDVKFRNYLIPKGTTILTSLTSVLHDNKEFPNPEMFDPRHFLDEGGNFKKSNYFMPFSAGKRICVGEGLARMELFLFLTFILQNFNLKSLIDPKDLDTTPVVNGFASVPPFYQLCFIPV
# UniProt P08684, whole entry, looked up: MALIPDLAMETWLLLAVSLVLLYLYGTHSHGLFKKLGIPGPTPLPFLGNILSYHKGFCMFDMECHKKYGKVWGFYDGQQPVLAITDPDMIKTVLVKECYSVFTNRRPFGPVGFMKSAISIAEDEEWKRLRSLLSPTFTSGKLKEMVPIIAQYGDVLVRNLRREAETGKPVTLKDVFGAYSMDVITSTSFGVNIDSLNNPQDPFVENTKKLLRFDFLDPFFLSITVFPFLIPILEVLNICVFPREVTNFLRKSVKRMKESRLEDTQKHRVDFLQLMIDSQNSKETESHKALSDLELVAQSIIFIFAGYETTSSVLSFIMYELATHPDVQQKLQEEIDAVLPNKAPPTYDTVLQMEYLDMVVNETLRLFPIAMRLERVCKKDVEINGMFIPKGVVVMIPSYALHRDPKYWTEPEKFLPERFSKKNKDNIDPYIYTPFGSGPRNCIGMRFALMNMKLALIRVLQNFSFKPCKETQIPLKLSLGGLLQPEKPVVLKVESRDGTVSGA
# UniProt P04406: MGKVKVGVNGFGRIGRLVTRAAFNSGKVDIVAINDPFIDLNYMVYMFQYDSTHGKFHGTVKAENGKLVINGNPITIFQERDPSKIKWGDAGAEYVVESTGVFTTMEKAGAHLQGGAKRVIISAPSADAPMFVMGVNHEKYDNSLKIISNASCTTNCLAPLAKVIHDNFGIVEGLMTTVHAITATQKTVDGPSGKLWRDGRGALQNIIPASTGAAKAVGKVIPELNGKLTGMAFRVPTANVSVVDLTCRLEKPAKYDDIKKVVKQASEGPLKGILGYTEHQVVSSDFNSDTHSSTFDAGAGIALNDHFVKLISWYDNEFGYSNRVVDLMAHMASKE
# UniProt P11712, whole entry, looked up: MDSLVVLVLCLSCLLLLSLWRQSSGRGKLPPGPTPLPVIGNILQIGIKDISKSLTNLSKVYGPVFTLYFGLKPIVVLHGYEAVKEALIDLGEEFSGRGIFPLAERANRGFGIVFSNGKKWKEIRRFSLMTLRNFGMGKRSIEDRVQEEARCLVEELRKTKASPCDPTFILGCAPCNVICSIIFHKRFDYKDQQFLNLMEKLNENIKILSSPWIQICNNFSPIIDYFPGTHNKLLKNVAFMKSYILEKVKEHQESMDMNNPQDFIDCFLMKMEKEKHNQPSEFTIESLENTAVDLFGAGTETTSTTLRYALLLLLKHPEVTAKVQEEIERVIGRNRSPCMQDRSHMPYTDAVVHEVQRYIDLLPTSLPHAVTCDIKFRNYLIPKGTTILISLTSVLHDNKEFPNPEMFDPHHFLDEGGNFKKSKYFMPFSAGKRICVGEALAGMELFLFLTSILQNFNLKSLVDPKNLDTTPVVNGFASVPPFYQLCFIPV
# UniProt P20813: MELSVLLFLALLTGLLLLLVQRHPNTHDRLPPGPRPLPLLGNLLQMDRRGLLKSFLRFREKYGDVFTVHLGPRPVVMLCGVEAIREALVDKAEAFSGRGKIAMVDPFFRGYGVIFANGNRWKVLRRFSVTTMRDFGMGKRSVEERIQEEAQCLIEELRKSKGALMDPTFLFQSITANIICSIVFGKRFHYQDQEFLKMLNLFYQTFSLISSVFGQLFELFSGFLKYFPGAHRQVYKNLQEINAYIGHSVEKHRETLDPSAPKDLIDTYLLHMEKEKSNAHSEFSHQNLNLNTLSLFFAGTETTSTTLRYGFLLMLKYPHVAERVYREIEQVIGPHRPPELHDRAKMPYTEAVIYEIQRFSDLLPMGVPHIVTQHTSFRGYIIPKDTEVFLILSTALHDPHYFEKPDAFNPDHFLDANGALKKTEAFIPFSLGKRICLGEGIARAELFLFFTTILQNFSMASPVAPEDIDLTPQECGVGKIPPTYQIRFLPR
# “And” between values parts separate entries of the source, which are not always exact repeats. Equal entries are not always repeated. Inconclusive results, whose numbers are uncertain, are shown with a selection of clear calls. For some of these results: Potencies of inconclusive entries are doubtful fits and often do not repeat. The source made the active and inactive calls. How the source made its calls: active means hit-call score of the fitted dose curve at least 0.9, where 1 is the maximum; inconclusive means response in the unintended direction; inactive means score below 0.9.
# Columns and labels:
# [1] = read-out: Broad substrate specificity ATP-binding cassette transporter ABCG2 (Homo sapiens) (UniProt Q9UNQ0); experiment: CLD_ABCG2_24hr: CellzDirect (CLD) Gene Expression Assay for ABC Transporter (ABCG2) at 24 hours (AID 2283685);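 further: AC50 is for induction meaning signal gain over DMSO vehicle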
# Procedure, shortened: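 Primary human hepatocytes were dosed daily with ToxCast chemicals at multiple concentrations (vehicle 0.2% DMSO). ABCG2 mRNA was measured at 24 h by qNPA chemiluminescence; induction was scored as gain of signal versus DMSO.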
# [2] = read-out: Cytochrome P450 2C19 (Homo sapiens) (UniProt P33261); experiment: CLD_CYP2C19_24hr: CellzDirect (CLD) Gene Expression Assay for xenobiotic metabolism (CYP2C19) at 24 hours (AID 2283687);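 on outcome: activity means mRNA induction above DMSO vehicle baseline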
# Procedure, shortened: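 Primary human hepatocytes (two donor preparations) dosed daily with fresh test chemical in 0.2% DMSO vehicle; CYP2C19 mRNA induction measured at 24 h by quantitative nuclease protection assay with chemiluminescence, fitted for gain of signal versus DMSO.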
# [3] = read-out: Cytochrome P450 3A4 (Homo sapiens) (UniProt P08684); experiment: CLD_CYP3A4_24hr: CellzDirect (CLD) Gene Expression Assay for xenobiotic metabolism (CYP3A4) at 24 hours (AID 2283689)
# Procedure, shortened: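 Primary human hepatocytes from two donors dosed daily with fresh compound for two days, 0.2% DMSO vehicle. CYP3A4 mRNA at 24 hr by qNPA chemiluminescence; gain-of-signal fit versus DMSO, cytotoxicity flagged by morphology.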
# [4] = read-out: HMG-CoA synthase (HMGCS2), HMGCS2 (gene 3158); experiment: CLD_HMGCS2_24hr: CellzDirect (CLD) Gene Expression Assay for HMG-CoA synthase (HMGCS2) at 24 hours (AID 2283691)
# Procedure, shortened: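 Primary human hepatocytes from two donor preparations, dosed daily with fresh solutions; vehicle 0.2% DMSO, 24 h harvest. HMGCS2 mRNA quantified by qNPA with S1 nuclease digestion and chemiluminescence; gain fitted versus DMSO, cytotoxicity annotated by morphology.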
# [5] = read-out: ABC Transporter (ABCB11), ABCB11 (gene 8647); experiment: CLD_ABCB11_48hr: CellzDirect (CLD) Gene Expression Assay for ABC Transporter (ABCB11) at 48 hours (AID 2283697)
# Procedure, shortened: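 Primary human hepatocytes from two donor preparations dosed daily for two days at multiple concentrations; 0.2% DMSO vehicle. ABCB11 mRNA at 48 h by quantitative nuclease protection assay, chemiluminescence; fitted for induction versus DMSO.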
# [6] = read-out: Cytochrome P450 2C19 (Homo sapiens) (UniProt P33261); experiment: CLD_CYP2C19_48hr: CellzDirect (CLD) Gene Expression Assay for xenobiotic metabolism (CYP2C19) at 48 hours (AID 2283700);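 on outcome: fitted upward so actives raise CYP2C19 mRNA above the 0.2% DMSO vehicle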
# Procedure, shortened: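 Primary human hepatocytes (two donor preparations) dosed daily for two days, harvested at 48 h; CYP2C19 mRNA induction measured by qNPA chemiluminescence. Gain-of-signal fitted relative to 0.2% DMSO vehicle as baseline.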
# [7] = CLD_ACTIN_48hr: CellzDirect (CLD) Gene Expression Assay for Baseline Control (Actin) at 48 hours (AID 2283702)
# Procedure, shortened: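 Primary human hepatocytes (two donor preparations) dosed daily for two days with ToxCast chemicals at multiple concentrations versus 0.2% DMSO vehicle; harvested at 48 h. Actin mRNA measured as a background control by quantitative nuclease protection assay with chemiluminescence.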
# [8] = read-out: Broad substrate specificity ATP-binding cassette transporter ABCG2 (Homo sapiens) (UniProt Q9UNQ0); experiment: CLD_ABCG2_48hr: CellzDirect (CLD) Gene Expression Assay for ABC Transporter (ABCG2) at 48 hours (AID 2283704);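 further: potency for induction of ABCG2 mRNA above the DMSO baseline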
# Procedure, shortened: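 Primary human hepatocytes from two donors, dosed daily for 2 days, 0.2% DMSO vehicle, several concentrations. ABCG2 mRNA at 48 h by qNPA chemiluminescence, gain fitted versus DMSO; cytotoxicity flagged by morphology.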
# [9] = read-out: Glyceraldehyde-3-phosphate dehydrogenase (Homo sapiens) (UniProt P04406); experiment: CLD_GAPDH_48hr: CellzDirect (CLD) Gene Expression Assay for Baseline Control (Glyceraldehyde 3-phosphate dehydrogenase) at 48 hours (AID 2283706);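 on outcome: active means higher GAPDH mRNA than DMSO vehicle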
# Procedure, shortened: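 Primary human hepatocytes dosed daily for two days with fresh chemical at multiple concentrations, 0.2% DMSO vehicle; GAPDH mRNA measured at 48 h by quantitative nuclease protection assay with chemiluminescence, fitted upward relative to DMSO as background control.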
# [10] = read-out: alkyl and aryl transferase (GSTA2), GSTA2 (gene 2939); experiment: CLD_GSTA2_48hr: CellzDirect (CLD) Gene Expression Assay for alkyl and aryl transferase (GSTA2) at 48 hours (AID 2283708);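 further: active means mRNA induction above DMSO vehicle baseline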
# Procedure, shortened: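 Primary human hepatocytes dosed daily for two days (0.2% DMSO vehicle), harvested at 48 h. GSTA2 mRNA induction measured by quantitative nuclease protection assay with chemiluminescent imaging, fitted for gain of signal relative to DMSO.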
# [11] = read-out: Cytochrome P450 2C9 (Homo sapiens) (UniProt P11712); experiment: CLD_CYP2C9_24hr: CellzDirect (CLD) Gene Expression Assay for xenobiotic metabolism (CYP2C9) at 24 hours (AID 2283688);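 on AC50: potency for induction meaning a rise in CYP2C9 mRNA over DMSO vehicle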
# Procedure, shortened: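 Primary human hepatocytes from two donor preparations, dosed daily for two days at multiple concentrations; vehicle 0.2% DMSO. CYP2C9 mRNA induction at 24 h measured by qNPA chemiluminescence relative to DMSO; cytotoxicity annotated from morphology.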
# [12] = read-out: organic anion transporter (SLCO1B1), SLCO1B1 (gene 10599); experiment: CLD_SLCO1B1_24hr: CellzDirect (CLD) Gene Expression Assay for organic anion transporter (SLCO1B1) at 24 hours (AID 2283690)
# Procedure, shortened: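 Primary human hepatocytes (two donor preparations) dosed daily for two days with chemicals at multiple concentrations, 0.2% DMSO vehicle. SLCO1B1 mRNA at 24 h measured by qNPA chemiluminescence; induction fitted relative to DMSO.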
# [13] = read-out: Glyceraldehyde-3-phosphate dehydrogenase (Homo sapiens) (UniProt P04406); experiment: CLD_GAPDH_24hr: CellzDirect (CLD) Gene Expression Assay for Baseline Control (Glyceraldehyde 3-phosphate dehydrogenase) at 24 hours (AID 2283692)
# Procedure, shortened: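 Primary human hepatocytes (two donor preparations) dosed daily for two days, 0.2% DMSO vehicle; GAPDH mRNA measured at 24 h by qNPA chemiluminescence as a background control, gain-of-signal fitted against DMSO.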
# [14] = read-out: alkyl and aryl transferase (GSTA2), GSTA2 (gene 2939); experiment: CLD_GSTA2_24hr: CellzDirect (CLD) Gene Expression Assay for alkyl and aryl transferase (GSTA2) at 24 hours (AID 2283693)
# Procedure, shortened: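 Primary human hepatocytes (two donor preparations) dosed daily for two days with chemicals at multiple concentrations (vehicle 0.2% DMSO); GSTA2 mRNA at 24 h measured by qNPA chemiluminescence, gain-of-signal versus DMSO.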
# [15] = read-out: ABC Transporter (ABCB1), ABCB1 (gene 5243); experiment: CLD_ABCB1_48hr: CellzDirect (CLD) Gene Expression Assay for ABC Transporter (ABCB1) at 48 hours (AID 2283695);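 further: potency for induction meaning increase of mRNA over DMSO vehicle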
# Procedure, shortened: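 Primary human hepatocytes from two donor preparations dosed daily on two consecutive days with 0.2% DMSO vehicle. Harvest at 48 h. ABCB1 mRNA quantified by qNPA with chemiluminescence and fitted for gain of signal versus DMSO.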
# [16] = read-out: xenobiotic metabolism (CYP1A1), CYP1A1 (gene 1543); experiment: CLD_CYP1A1_48hr: CellzDirect (CLD) Gene Expression Assay for xenobiotic metabolism (CYP1A1) at 48 hours (AID 2283705)
# Procedure, shortened: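 Primary human hepatocytes from two donors dosed daily for two days at multiple concentrations, 0.2% DMSO vehicle; CYP1A1 mRNA induction at 48 h by qNPA chemiluminescence. Cytotoxicity noted by phase-contrast morphology.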
# [17] = read-out: Cytochrome P450 2B6 (Homo sapiens) (UniProt P20813); experiment: CLD_CYP2B6_48hr: CellzDirect (CLD) Gene Expression Assay for xenobiotic metabolism (CYP2B6) at 48 hours (AID 2283699);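 further: actives raise transcript level above DMSO so potency reflects induction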
# Procedure, shortened: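 Primary human hepatocytes dosed daily for two days over multiple concentrations, 0.2% DMSO vehicle; CYP2B6 mRNA quantified at 48 h by qNPA chemiluminescence. Induction fitted as gain of signal versus DMSO; cytotoxicity annotated by morphology.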
# [18] = read-out: organic anion transporter (SLCO1B1), SLCO1B1 (gene 10599); experiment: CLD_SLCO1B1_48hr: CellzDirect (CLD) Gene Expression Assay for organic anion transporter (SLCO1B1) at 48 hours (AID 2283707)
# Procedure, shortened: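 Primary human hepatocytes from two donor preparations dosed daily for two days with multiple concentrations, 0.2% DMSO vehicle. SLCO1B1 mRNA at 48 h by quantitative nuclease protection assay, chemiluminescence; gain-of-signal fitted versus DMSO.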
# [19] = read-out: sulfotransferase (SULT2A), SULT2A1 (gene 6822); experiment: CLD_SULT2A_24hr: CellzDirect (CLD) Gene Expression Assay for sulfotransferase (SULT2A) at 24 hours (AID 2283694);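 further: potency for increased SULT2A1 mRNA level as induction over DMSO baseline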
# Procedure, shortened: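 Primary human hepatocytes from two donor preparations were dosed daily with fresh solutions, vehicle 0.2% DMSO. At 24 h, lysates went to quantitative nuclease protection (qNPA) with S1 digestion and chemiluminescent readout. Cytotoxicity was annotated from phase-contrast morphology.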
smiles,measurement,setting,value
CCC(CC)Nc1c([N+](=O)[O-])cc(C)c(C)c1[N+](=O)[O-],AC50,[1],inconclusive: 20 µM
same,outcome,[2],inactive
same,AC50,[3],inconclusive: 0.0004 µM
same,AC50,[4],inconclusive: 4.89 µM
same,AC50,[5],inconclusive: 6.25 µM
same,AC50,[6],inconclusive: 2.95 µM
same,outcome,[7],inactive
same,AC50,[8],inconclusive: 20 µM
same,outcome,[9],inactive
same,outcome,[10],inactive
Cc1cc(C)nc(Nc2ccccc2)n1,AC50,[1],inconclusive: 20 µM
same,AC50,[2],inconclusive: 20 µM
same,AC50,[11],inconclusive: 35.8 µM
same,AC50,[3],active: 1.78 µM
same,AC50,[12],inconclusive: 20 µM
same,AC50,[4],inconclusive: 5.19 µM
same,AC50,[13],inconclusive: 20 µM
same,AC50,[14],inconclusive: 27.1 µM
same,AC50,[15],inconclusive: 11.3 µM
same,AC50,[5],inconclusive: 20 µM
same,AC50,[6],inconclusive: 5.51 µM
same,AC50,[7],inconclusive: 8.44 µM
same,AC50,[16],active: 3.97 µM
same,AC50,[9],inconclusive: 20 µM
same,AC50,[10],inconclusive: 20 µM
CNC(=O)ON=C(SC)C(=O)N(C)C,AC50,[1],inconclusive: 20 µM
same,outcome,[2],inactive
same,outcome,[13],inactive
same,AC50,[5],inconclusive: 2.36 µM
same,AC50,[17],inconclusive: 20 µM
same,outcome,[6],inactive
same,AC50,[18],inconclusive: 6.45 µM
CNC(=O)N(C)c1nnc(C(C)(C)C)s1,AC50,[1],inconclusive: 0.00424 µM
same,outcome,[2],inactive
same,AC50,[11],inconclusive: 0.00169 µM
same,AC50,[13],inconclusive: 20 µM
same,outcome,[14],inactive
same,AC50,[19],inconclusive: 0.00568 µM
same,AC50,[5],inconclusive: 0.00201 µM
same,AC50,[17],inconclusive: 0.0146 µM
same,outcome,[7],inactive
same,outcome,[16],inactive
COc1nc(C)nc(NC(=O)NS(=O)(=O)c2ccccc2CCC(F)(F)F)n1,AC50,[1],inconclusive: 20 µM and inconclusive: 323 nM
same,AC50,[2],inconclusive: 20 µM
same,outcome,[2],inactive
same,AC50,[11],inconclusive: 4 nM and inconclusive: 20 µM
same,AC50,[12],inconclusive: 3.78 nM and inconclusive: 7.61 nM
same,outcome,[12],inactive
same,AC50,[13],inconclusive: 0.0542 µM
same,AC50,[14],inconclusive: 20 µM
same,AC50,[15],inconclusive: 37.2 µM and inconclusive: 20 µM
same,AC50,[5],inconclusive: 4.09 µM and inconclusive: 20 µM
same,outcome,[5],inactive
same,AC50,[6],inconclusive: 20 µM
same,AC50,[7],inconclusive: 2.48 µM and inconclusive: 20 µM
same,AC50,[9],inconclusive: 20 µM and inconclusive: 37.3 µM and inconclusive: 1.11 µM
same,AC50,[18],inconclusive: 20 µM and inconclusive: 75.2 nM
COc1ccc(C(c2ccc(OC)cc2)C(Cl)(Cl)Cl)cc1,AC50,[1],inconclusive: 20 µM
same,AC50,[2],inconclusive: 3.97 µM
same,outcome,[11],inactive
same,AC50,[4],inconclusive: 4 µM
same,AC50,[5],inconclusive: 20 µM
same,outcome,[6],inactive
same,AC50,[7],inconclusive: 20 µM
same,AC50,[9],inconclusive: 20 µM
same,AC50,[18],inconclusive: 0.00135 µM
same,AC50,[10],inconclusive: 20 µM

# Given as tab-separated lines: entries from further up.
smiles	measurement	setting	value
COc1nc(C)nc(NC(=O)NS(=O)(=O)c2ccccc2CCC(F)(F)F)n1	outcome	[5]	inactive
same	AC50	[6]	inconclusive: 20 µM
same	AC50	[7]	inconclusive: 2.48 µM and inconclusive: 20 µM
same	AC50	[9]	inconclusive: 20 µM and inconclusive: 37.3 µM and inconclusive: 1.11 µM
same	AC50	[18]	inconclusive: 20 µM and inconclusive: 75.2 nM
COc1ccc(C(c2ccc(OC)cc2)C(Cl)(Cl)Cl)cc1	AC50	[1]	inconclusive: 20 µM
same	AC50	[2]	inconclusive: 3.97 µM
same	outcome	[11]	inactive
same	AC50	[4]	inconclusive: 4 µM
same	AC50	[5]	inconclusive: 20 µM
same	outcome	[6]	inactive
same	AC50	[7]	inconclusive: 20 µM
same	AC50	[9]	inconclusive: 20 µM
